Like-named read-outs stand apart in the source and are kept apart here. Not every detail of the peptide structures is certain; ends, links or a residue may be inferred.
Legend:
[1] = tested on: amyloid plaques in cortex and hippocampus; assay: Plaque load (6E10 IHC, ThioflavinS) in hAPP Tg mice; format: in vivo
porcine islets = assay: Porcine islet isolation; conditions: 10 micromolar
human islets = assay: Human islets submitted to hypoxia during 24 h; format: cell-based; conditions: 100 microM
Brown Norway rats, STZ = format: in vivo, rat; conditions: for retinal cytokines (23-plex): Day 114
[2] = tested on: C57BL/6 mice, bleomycin induced fibrosis; assay: Bleomycin induced lung fibrosis (COPD model); format: in vivo; conditions: for histology: inflammatory cells accumulation, fibrotic areas, loss of lung architecture: day 10
[3] = tested on: female Sprague-Dawley rats, CYP-induced cystitis; assay: CYP-induced acute cystitis, intravesical treatment; format: in vivo, rat; conditions: 50 mg/mL i.ves., 24 h post-CYP
Method: This preclinical model is well-used to test therapeutic approaches for the treatment of interstitial cystitis/painful bladder syndrome (IC/PBS).
Animals were acclimatized to the laboratory conditions for at least 3 days before the start of any experiments. The animals were allocated to the following four experimental groups (n=10 animals per group):
To induce acute cystitis, a single i.p. injection of CYP at a dose of 150 mg/kg in a final volume of 5 mL/kg was performed. Control rats received physiological saline under the same experimental conditions as CYP (final volume of 5 mL/kg, i.p.).
On the day of each experiment, weight of rats was recorded.
Standardized conditions including fixed time-of-day (a.m. to minimize the potential circadian variations in the behaviours responses) and single-experimenter testing of all animals were applied to minimize variability behavior-based pain testing. Visceral pain including allodynia and hyperalgesia was evaluated by applying to the lower abdomen, close to the urinary bladder, a set of 8 calibrated von Frey filaments of increasing forces (1, 2, 4, 6, 8, 10, 26 and 60 g) with an interstimulus interval of 5 seconds. Prior testing, the abdominal area designed for mechanical stimulation of each animal was shaved. Animals were then placed on a raised wire mesh floor under individual transparent Plexiglas box and acclimatized for at least 30 minutes before starting the von Frey test. Filaments were then applied 1-2 seconds through the mesh floor with enough strength to cause the filament to slightly bend. Each filament was tested 3 times. Care was taken to stimulate different areas within the lower abdominal region in the vicinity of the urinary bladder to avoid desensitization.
Urinary bladders were rapidly collected and cleaned from lipoid tissue. […] Finally, wall thickness was measured using a digital caliper by placing the bladder wall between the two outside jaws.

[4] = tested on: Sprague-Dawley rats, bilateral IR; assay: Kidney bilateral ischemia reperfusion, 8 mg/kg before IR surgery; format: in vivo, rat
[5] = tested on: β-amyloid1-40 and β-amyloid1-42 levels; assay: Aβ1-40 and Aβ1-42 ELISA in brain homogenate fractions and CSF of hAPP Tg mice; format: in vivo
hAPP Tg mice = assay: Morris Water Maze in hAPP transgenic mice; format: in vivo; conditions: 0.1 mg/kg
[6] = tested on: Wistar rats, PAN-induced nephropathy; assay: PAN-induced nephropathy, frequency of administration; format: in vivo, rat

CC(C)C[C@@H](NC(=O)[C@@H](Cc1ccccc1)NC(=O)[C@H]1CCCN1C(=O)[C@@H](CCC(N)=O)NC(=O)[C@H](NC(=O)[C@H]1CCCN1C(=O)[C@@H](CCCNC(=N)N)NC(=O)[C@@H](CO)NC(=O)[C@@H](CCC(N)=O)NC(=O)[C@H](N)CC(=O)O)C(C)C)C(=O)N[C@H](CC(N)=O)C(=O)N[C@H](CC(C)C)C(=O)N[C@@H](C(=O)N[C@@H](C(=O)N1CCC[C@@H]1C(=O)N[C@H](CCCNC(=N)N)C(=O)N[C@H](CCCCN)C(=O)N1CCC[C@@H]1C(=O)N[C@H](CCCNC(=N)N)C(=O)N1CCC[C@@H]1C(=O)N1CCC[C@@H]1C(=O)N[C@H](CCCNC(=N)N)C(=O)N[C@H](CCCNC(=N)N)C(=O)N[C@H](CCCNC(=N)N)C(=O)N[C@H](CCC(N)=O)C(=O)N[C@H](CCCNC(=N)N)C(=O)N[C@H](CCCNC(=N)N)C(=O)N[C@H](CCCCN)C(=O)N[C@H](CCCCN)C(=O)N[C@H](CCCNC(=N)N)C(=O)NCC(=O)O)[C@H](C)O)[C@H](C)O [XG-102]
mean plaque size (ThioflavinS, hippocampus) ([1]; 0.1 mg/kg): also reduced mean plaque size, however this effect did not reach significance level
cortical 6E10 IR plaque load ([1]; 10 mg/kg): cortical 6E10 IR plaque load was increased versus vehicle
number of hippocampal ThioflavinS positive plaques ([1]; 10 mg/kg p<0.05, 0.1 mg/kg p<0.01): led to a negatively dose dependent reduction of the number of hippocampal ThioflavinS positive plaques
activation of JNK during isolation (porcine islets): blocks the activation of JNK
viability of freshly isolated islets (OCR/DNA, ATP/protein) (porcine islets; vs paired untreated controls): has a statistically significant and important effect on the viability of freshly isolated islets
apoptosis of human islets (human islets; hypoxia 24 h): also decreases apoptosis induced by hypoxia
necrosis of human islets (human islets; normoxic and hypoxic conditions): decreased necrosis either in normoxic and hypoxic conditions
retinal cytokines (23-plex) (Brown Norway rats, STZ; 2 μg/eye): Seven of the 13 elevated cytokines were reduced
contrast threshold (Brown Norway rats, STZ; 200 μg/eye, course of the study): the decline is significantly delayed in the group treated with 200 μg/eye
spatial frequency threshold (Brown Norway rats, STZ; 2 or 200 μg/eye, Day 113): having significantly higher spatial frequency thresholds
visual acuity (spatial frequency threshold, OKT) (Brown Norway rats, STZ; 20 or 200 μg/eye, Day 57 to Day 99): significantly delays the progressive decline in visual acuity
retinal cytokines (23-plex) (Brown Norway rats, STZ; 20 or 200 μg/eye): All cytokines were BLQ
contrast threshold (Brown Norway rats, STZ; all XG-102 treated groups, Day 99): have significantly higher contrast threshold values relative to the vehicle group
cell recruitment in bronchoalveolar lavage space ([2]; 0.001 mg/kg s.c. 3 times in 10 days): reduced significantly the lymphocyte recruitment and the number of total cells recruited
histology: inflammatory cells accumulation, fibrotic areas, loss of lung architecture ([2]; 0.001 mg/kg): A decrease of these parameters was observed
cell recruitment in bronchoalveolar lavage space ([2]; 0.1 mg/kg s.c. 3 times in 10 days): had no effect
histology: inflammatory cells accumulation, fibrotic areas, loss of lung architecture ([2]; 0.1 mg/kg): but not with the high dose
AUC 1-8 g (allodynia) [3]: AUC 1-8 g was significantly decreased by XG-102 treatment
AUC 8-60 g (hyperalgesia) [3]: AUC 8-60 g was reduced by XG-102 treatment
haemorrhage scores [3]: a trend towards decreased haemorrhage scores, it did not reach statistical significance
nociceptive scores [3]: significantly decreased nociceptive scores
urinary bladder wall thickness [3]: urinary wall thickness was significantly decreased in XG-102-treated rats
nociceptive threshold ([3]; vs vehicle): significantly increased
plasma creatinine ([4]; 8 mg/kg i.v. one hour before IR surgery, 24 and 48 h): resulted in a decrease of the creatinine increase induced by IR surgery, which was significant at 24 h after reperfusion
tubular damages, total tubular score ([4]; 8 mg/kg i.v., 48 hours): showed significant beneficial effects on tubular damages
urinary creatinine and urea ([4]; 8 mg/kg i.v., 48 hours after reperfusion): resulted in a significant increase of the urinary creatinine and urea decrease induced by IR surgery
Aβ1-42 levels in Triton X-100 fraction ([5]; 0.1 mg/kg): featured a significant reduction compared to the vehicle group (p<0.05)
brain homogenate Aβ1-40 levels ([5]; both dosages): did not affect brain homogenate Aβ1-40 levels
learning performance in the MWM (hAPP Tg mice): showed a tendency to have worse learning performance between day 1 and day 4
glomeruli with Grade 2, average ([6]; Group 3, 4 i.v., day 49): 15%
glomeruli with a Grade 1, average ([6]; Group 3, 4 i.v., day 49): 61%
percentage of affected glomeruli ([6]; Group 8, 1 i.v., day 77): 69%
duration of action ([6]; single i.v. 4 mg/kg): up to 2 months
